The first series relates to cellular localization of TIF-IA. Kind of series: Immunofluorescence of FLAG-tagged TIF-IA in U-20S cells. The series is classed as cell-based. The following applies: 20 nM rapamycin, 2 hr.
As for “TIF-IA: wild-type human transcription initiation factor TIF-IA, accession No. AJ272050”, the “localization of the TIF-IA form after rapamycin treatment” value (from here on “localization of the TIF-IA form”) is on record as “Rapamycin-dependent translocation was observed”.

As to “TIF-IAS199A: the mutant in which S199 was changed to alanine”, the “localization of the TIF-IA form” value was “retained in the nucleoplasm”.

For “TIF-IAS199D: TIF-IA mutant, replacement of S199 by aspartic acid”, the “localization of the TIF-IA form” value is on record as “Rapamycin-dependent translocation was observed”.

The test system of another series is TIF-IA. Nature of the series: Two-dimensional tryptic phosphopeptide mapping of TIF-IA labeled in vivo in HEK293T cells. Particulars: S635 mutants. In kind it is cell-based, human. How it is done:
HEK293T cells were transfected with pcDNA3.1-FLAG-TIF-IA, starved for 12 hr and labeled for 4 hr with [^32P]orthophosphate. 30 min before harvesting, 10% dialyzed FCS was added and cells were incubated in the absence (left panel) or presence of 40 μM PD98059 (right panel). Immunopurified TIF-IA was subjected to two-dimensional phosphopeptide mapping.
(B) Tryptic peptide maps of TIF-IA phosphorylated in vivo. FLAG-tagged wild-type TIF-IA, TIF-IAS633A and TIF-IAS649A were expressed in HEK293T cells and labeled with [^32P]orthophosphate for 4 hr. TIF-IA was purified by immunoprecipitation and digested with trypsin. Phosphopeptides were separated on cellulose thin-layer plates and visualized by autoradiography. The sequence of the C-terminus of human TIF-IA (H.s.) and an alignment with the corresponding sequences from mouse (M.m.), Drosophila melanogaster (D.m.) and Saccharomyces pombe (S.p.) is shown above.
(A) Two-dimensional tryptic phosphopeptide maps of TIF-IA. HEK293T cells were transfected with FLAG-tagged TIF-IA and labeled for 2 hr with [^32P]orthophosphate in the absence (left) or presence (right) of 20 nM rapamycin. TIF-IA was immunopurified, digested with trypsin, separated on cellulose thin-layer plates and visualized by autoradiography.
(B) Tryptic phosphopeptide map of TIF-IAS44A phosphorylated in vivo. FLAG-tagged wild-type TIF-IA and TIF-IAS44A were expressed in HEK293T cells and labeled for 2 hr with [^32P]orthophosphate. TIF-IA was immunopurified, digested with trypsin, separated on cellulose thin-layer plates and visualized by autoradiography.
4×10^6 HEK293T cells overexpressing FLAG-tagged TIF-IA were cultured in DMEM/0.1% FCS for 12 hr, then for 30 min in phosphate-free DMEM with 0.1% dialyzed FCS, before labeling with 0.5 mCi/ml [^32P]orthophosphate for 4 hr. For mitogenic stimulation, 10% dialyzed FCS was added 30 min before harvesting. Cells were lysed in modified RIPA buffer (20 mM Tris-HCl [pH 7.4], 200 mM NaCl, 2 mM EDTA, 2 mM EGTA, 1% Triton X-100, 0.1% SDS, 10 mM a-glycerophosphate, 10 mM KH2PO4, 1 mM Na3VO4, 0.5 mM PMSF, 1 μg/ml aprotinin, 5 μg/ml leupeptin, and 1 gg/ml pepstatin A). TIF-IA was immunoprecipitated, separated by SDS-PAGE, transferred to nitrocellulose and visualized by autoradiography. For tryptic phosphopeptide mapping, labeled TIF-IA was digested overnight at 37° C. with 5 μg trypsin (sequencing grade, Promega Corp., Madison, USA) in 50 mM ammonium bicarbonate. After lyophilisation, the peptides were resolved on cellulose thin-layer plates by electrophoresis for 25 min at 1000 V in 1% (w/v) ammonium carbonate (pH 8.9), followed by ascending chromatography in a buffer containing 62.5% isobutyric acid, 1.9% n-butanol, 4.8% pyridine and 2.9% acetic acid.
To identify the amino acids that are phosphorylated by ERK-dependent pathways, serum-starved cells were metabolically labeled with [^32P]orthophosphate, then stimulated with serum in the absence or presence of PD98059, and immunopurified TIF-IA was subjected to two-dimensional tryptic phosphopeptide mapping. Consistent with its role in sensing a variety of external signals, TIF-IA was phosphorylated at multiple sites. In serum-stimulated cells 10 peptides were phosphorylated (FIG. 3C, left panel). In the presence of PD98059, labeling of spots d, f and g, was impaired (FIG. 3C, right panel). In addition, phosphorylation of spots b and c was reduced. Thus, ERK-dependent kinases directly or indirectly phosphorylate TIF-IA at several sites.
An important prediction of TIF-IA activity being regulated by rapamycin-sensitive signaling pathways is that the phosphorylation pattern of TIF-IA is different in untreated and rapamycin-treated cells. To test this prediction, the tryptic phosphopeptide pattern of TIF-IA derived from exponentially growing and rapamycin-treated cells was compared. […]
“TIF-IAS635A: TIF-IA point mutant, serine 635 replaced by alanine”: the “in vivo phosphorylation of S633 and S649” value is reported as “both sites are phosphorylated”.

As for “TIF-IAS635D: TIF-IA with single-residue substitution at S635 by aspartic acid”, the “in vivo phosphorylation of S633 and S649” value was “prevents in vivo phosphorylation of S633 and S649”.

The series is the same for the next values; noted with them: labeled in vivo with [32P]orthophosphate.
Consider “TIF-IA1-632: a mutant lacking the C-terminal amino acids 633-651”, for which the “tryptic phosphopeptide pattern of mutant compared with wild-type TIF-IA” value was “phosphopeptides c, d, f and g were absent”.

“TIF-IAS44A: TIF-IA mutant, S44 mutated to alanine”: the “tryptic phosphopeptide pattern of mutant compared with wild-type TIF-IA” value is “phosphopeptides b and b′ were lacking”.

Take “TIF-IAS633A: TIF-IA point mutant, serine 633 replaced by alanine”: the “tryptic phosphopeptide pattern of mutant compared with wild-type TIF-IA” value is “lacks two phosphopeptides, i.e., spots f and g”.

Turning to “TIF-IAS649A: TIF-IA point mutant, serine residue at position 649 replaced by an alanine residue”, the “tryptic phosphopeptide pattern of mutant compared with wild-type TIF-IA” value is “spots d, f and g, were absent”.

The values are drawn from patent publication US20060057669A1, “Inactive transcription factor tif-ia and uses thereof” (priority 2002, published 2006).
